Article PMC4014126 (2014)
Where a chain is given by its changes, count along the chain named. No constants are given. Whether binding was seen depends on the method and setting. Binding seen in cells or lysates may run through a third protein. Some entries that bind do so weakly or less than the wild type. Where a sequence is shown, tags or fusion partners need not be part of it.

How the values were obtained:
Assay in all cases: co-IP; IL-17RA-deficient MEFs reconstituted by retroviral infection with Myc-tagged mouse IL-17RA or its mutants, treated with IL-17 for 10 min; cell extracts incubated overnight with anti-Myc antibody (1 µg) and protein A beads, washed four times with lysis buffer; Western blot for Act1
[1] = biological target: T1, Myc-tagged mouse IL-17RA mutant M4 (E419A/Q420A/E424A) (mouse) (UniProt Q60943)
T1 sequence: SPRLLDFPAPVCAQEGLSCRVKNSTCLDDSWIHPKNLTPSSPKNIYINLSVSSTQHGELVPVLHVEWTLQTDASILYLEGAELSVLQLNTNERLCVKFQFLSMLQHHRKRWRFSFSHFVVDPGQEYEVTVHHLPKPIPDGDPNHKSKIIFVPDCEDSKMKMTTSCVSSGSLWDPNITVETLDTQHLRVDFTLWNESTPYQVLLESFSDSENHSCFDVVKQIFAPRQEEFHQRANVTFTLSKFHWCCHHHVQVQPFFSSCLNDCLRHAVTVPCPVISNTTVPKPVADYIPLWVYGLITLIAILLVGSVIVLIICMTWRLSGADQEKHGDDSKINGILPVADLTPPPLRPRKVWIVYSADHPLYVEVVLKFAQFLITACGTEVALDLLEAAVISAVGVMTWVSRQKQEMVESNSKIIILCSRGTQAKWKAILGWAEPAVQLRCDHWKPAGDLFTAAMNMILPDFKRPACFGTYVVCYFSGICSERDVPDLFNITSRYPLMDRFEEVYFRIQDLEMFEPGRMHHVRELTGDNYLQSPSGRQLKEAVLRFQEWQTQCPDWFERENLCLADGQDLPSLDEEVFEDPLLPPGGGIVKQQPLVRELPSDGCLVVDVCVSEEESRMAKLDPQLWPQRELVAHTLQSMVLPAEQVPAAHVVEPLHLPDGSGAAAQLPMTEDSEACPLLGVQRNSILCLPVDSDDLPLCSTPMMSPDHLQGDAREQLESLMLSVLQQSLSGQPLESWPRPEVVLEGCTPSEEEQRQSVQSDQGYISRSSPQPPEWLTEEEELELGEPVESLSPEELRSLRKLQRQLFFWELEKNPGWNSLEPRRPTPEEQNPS

[2] = biological target: T2, Myc-tagged mouse IL-17RA mutant M5 (V427A/M428A) (mouse) (UniProt Q60943)
T2 sequence: T1 sequence with A388E, A389Q, A393E, V396A, M397A

[3] = biological target: T3, Myc-tagged mouse IL-17RA mutant M2 (I460A/L461A) (mouse) (UniProt Q60943)
T3 sequence: T1 sequence with A388E, A389Q, A393E, I429A, L430A

[4] = biological target: T4, Myc-tagged mouse IL-17RA mutant M3 (R451A/Q454A/K458A) (mouse) (UniProt Q60943)
T4 sequence: T1 sequence with A388E, A389Q, A393E, R420A, Q423A, K427A

[5] = biological target: T5, Myc-tagged mouse IL-17RA (mouse) (UniProt Q60943)
T5 sequence: T1 sequence with A388E, A389Q, A393E

- binding [1]: binds
- binding [2]: binds
- binding [3]: binds
- binding [4]: binds
- binding [5]: binds
B1: NF-κB activator 1 (Act1) (protein, UniProt Q8N7N6 1-555)
chain: MNRSIPVEVDESEPFPSQLLKPIPEYSPEEELEPPAPNTRNMAPSSLSVLQCPPLKLANHQPVSQQVTCLRAKVLEEGEASFFRRHPELGKDISSCSSGASEPESELGALPPEHRFTLTEKRNRWLGSQLSAASPDTGHESDKSDPSLPNALADSFSGGQEMMPRPRPRPGPHRHRAAPDVPTIDTGYDSQPQDVLGIRQLERPLPLTSSCYLQDLPGPLRSRELPPQFELERYPMNAQLLPPHPSPQAPWNCQYYCPGGPYHHQVPHGHGYPPAAAYQQVLQPALPGQVLPGARARGPRPVQKVILNDSSPQDQEERPAQRDFSFPRLPRDQLYRPPSNGVEAPEESLDLPAELRPHGPQAPSLAAVPRPPSNPLARGTLRTSNLPEELRKVFITYSMDTAMEVVKFVNFLLVNGFQTAIDIFEDRIRGIDIIKWMERYLRDKTVMIIVAISPKYKQDVEGAESQLDEDEHGLHTKYIHRMMQIEFISQGSMNFRFIPVLFPNAKKEHVPTWLQNTHVYSWPKNKKNILLRLLREEEYVAPPRGPLPTLQVVPL
